Test results taken from patent US20220227876A1 (COUNCIL OF THE QUEENSLAND INSTITUTE OF MEDICAL RESEARCH, published 2022).
Results are given in words; binding and its absence hold for the method and conditions named. Some entries that bind do so weakly or less than the wild type. Tags and fused reporters may be left off the sequences shown.

Tests used:
[1] = target: T1, human RANK-Fc [RANK AA sequence 30-212] (human) (UniProt Q9Y6Q6); assay: phage ELISA on coated RANK-Fc
T1 sequence (looked up): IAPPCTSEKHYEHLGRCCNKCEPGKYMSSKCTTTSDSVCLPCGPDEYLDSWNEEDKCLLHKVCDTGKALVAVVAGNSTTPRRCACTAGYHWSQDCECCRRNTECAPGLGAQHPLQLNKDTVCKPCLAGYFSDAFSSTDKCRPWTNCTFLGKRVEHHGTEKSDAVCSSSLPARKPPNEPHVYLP

[2] = target: T2, mouse RANK-Fc [RANK AA sequence 31-214] (mouse) (UniProt O35305); assay: phage ELISA on coated RANK-Fc
T2 sequence (looked up): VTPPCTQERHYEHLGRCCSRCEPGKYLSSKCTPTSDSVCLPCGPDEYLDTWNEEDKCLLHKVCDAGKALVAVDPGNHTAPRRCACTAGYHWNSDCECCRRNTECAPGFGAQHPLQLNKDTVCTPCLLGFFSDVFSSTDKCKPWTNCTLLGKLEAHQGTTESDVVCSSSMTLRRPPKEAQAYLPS

[3] = target: T1, human RANK-Fc [RANK AA sequence 30-212] (human); assay: competition phage ELISA on coated human RANK-Fc

Measured: binding

B1: anti-RANK phagemid R03A03 (Fab, V domains shown)
VH: EVQLVESGGGVVQPGTSLRLSCAASGFTFSSYAMHWVRQAPGKGLEWVAVVSYDGSTKSYADSMKGRFTISRDNSKNTLYLQMNSLRAEDTAVYYCAKDPALRYFDWGYFQHWGQGTLVTVSS
VL: SYELTQPPSVSVSPGQTASITCSGDKLGDKYVCWYQQKPGQSPVLVIYGDSERPSGIPERFSGSNSGNTATLTISGTRAVDEADYYCQAWDSTTPLFGGGTNLTVL
binds: all assays above
